PubChem BioAssay AID1224826 | NIAID, 2016
The deposit covers about 17,000 reagents; this is an unselected part. Over the whole deposit, about 1,110 (6.6%) got an active call. 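Active means lowered or raised reporter signal; replicate intensities are raw and not normalised per plate.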 A number with no mark means an inactive call. Further read-outs or replicates are left out here.

- Aim: 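Regulators of Tlr4 signalling leading to Tnf-alpha expression in macrophages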 (primary screen)
- Cell system: RAW264.7 G9 macrophages from mouse bearing reporters for p65 (GFP) and the Tnf promoter (mCherry)
- Reagent: siRNA pool against mouse genes, 100 nM
- Time to read-out: 16 h of LPS stimulation, after 2 days of siRNA transfection
- Conditions: bacterial lipopolysaccharide (Salmonella minnesota R595), 10 ng/ml
- Measured: 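Nuclear mCherry signal of the Tnf promoter reporter measured by imaging after background removal, scaled to each plate median and turned into robust z-scores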
- Direction: Tnf reporter robust z-score: higher = stronger Tnf promoter reporter signal after LPS
- Active means: 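a well counts as active at a score of -1.3 or below (Tlr4 knock-down control median) or above 3 (raised signal); controls and wells holding fewer than 50 cells are excluded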
- Meaning of the calls: active = Tnf reporter clearly lowered or raised; inactive = no clear change in Tnf reporter

After knock-down of Rita1 (GeneID 100764), the screen gave Tnf reporter robust z-score 1.07; fewer than 50 cells in well enough cells in well. With knock-down of Arhgap23 (GeneID 58996), the screen gave Tnf reporter robust z-score -0.97; fewer than 50 cells in well enough cells in well. Against Spop (GeneID 20747), the entry reads Tnf reporter robust z-score 1.51; fewer than 50 cells in well enough cells in well. 2210016L21Rik (GeneID 72357) gave fewer than 50 cells in well fewer than 50 cells per well; well left out of calls. Depletion of Eif4ebp3 (GeneID 108112) resulted in: Tnf reporter robust z-score 0.54; fewer than 50 cells in well enough cells in well. Silencing of Cntnap5b (GeneID 241175) gave: Tnf reporter robust z-score -0.22; fewer than 50 cells in well enough cells in well.

Depletion of Endov (GeneID 338371) resulted in: Tnf reporter robust z-score 1.66; fewer than 50 cells in well enough cells in well. Against Or10j7 (GeneID 258758), the entry reads Tnf reporter robust z-score -0.88; fewer than 50 cells in well enough cells in well. Il34 (GeneID 76527) gave Tnf reporter robust z-score -0.86; fewer than 50 cells in well enough cells in well. With knock-down of Usp17la (GeneID 13531), the record shows Tnf reporter robust z-score 2.37; fewer than 50 cells in well enough cells in well. For Clcn2 (GeneID 12724) the deposit lists Tnf reporter robust z-score -0.36; fewer than 50 cells in well enough cells in well. For Fndc10 (GeneID 230991), the entry reads Tnf reporter robust z-score 0.84; fewer than 50 cells in well enough cells in well.

For Fcer2a (GeneID 14128) the deposit lists Tnf reporter robust z-score -0.26; fewer than 50 cells in well enough cells in well. With knock-down of Zcchc18 (GeneID 66995), the record shows Tnf reporter robust z-score -0.21; fewer than 50 cells in well enough cells in well. After knock-down of Scarb2 (GeneID 12492), the screen gave Tnf reporter robust z-score -0.43; fewer than 50 cells in well enough cells in well. Against Ablim1 (GeneID 226251) the deposit lists Tnf reporter robust z-score -0.98; fewer than 50 cells in well enough cells in well. Silencing of Rnps1 (GeneID 19826) came out at: Tnf reporter robust z-score -1.31 (active); fewer than 50 cells in well enough cells in well. Or2a5 (GeneID 258270) gave Tnf reporter robust z-score -0.89; fewer than 50 cells in well enough cells in well.

1700010I14Rik (GeneID 66931) showed Tnf reporter robust z-score -1.74 (active); fewer than 50 cells in well enough cells in well. Ccdc159 (GeneID 67119) showed Tnf reporter robust z-score 0.4; fewer than 50 cells in well enough cells in well. With knock-down of Zfp41 (GeneID 22701), the screen gave Tnf reporter robust z-score -0.67; fewer than 50 cells in well enough cells in well.

An excerpt from above, reduced to “Tnf reporter robust z-score”.
Endov (GeneID 338371): 1.66
Or10j7 (GeneID 258758): -0.88
